For some of these results: Negatives hold for the conditions tested. For some of these results: At least one verdict was read from the data and is not stated in words by the source. For some of these results: Construct, isoform or probe ends are uncertain for at least one entry. For some of these results: Protein sequences can lack the tags named with them. For some of these results: At least one result comes from cells or an extract, where the contact may be indirect.
How the values were obtained:
[1] = biological target: T1, HMGB1 (UniProt P63158); assay: pull-down; conditions: Bead pull-down: PBS (pH 7), room temperature, 1-2 h, western blot, recombinant protein
T1 sequence (looked up, limits assumed): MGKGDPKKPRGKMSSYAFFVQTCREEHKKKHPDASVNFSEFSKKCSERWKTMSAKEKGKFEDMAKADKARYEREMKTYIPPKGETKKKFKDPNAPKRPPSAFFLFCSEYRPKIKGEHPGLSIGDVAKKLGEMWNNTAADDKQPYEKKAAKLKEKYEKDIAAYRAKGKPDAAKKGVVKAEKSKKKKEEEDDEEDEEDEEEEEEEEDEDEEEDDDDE

[2] = biological target: T2, HMGB1 from LPS-stimulated RAW 264.7 supernatant (UniProt P63158); assay: pull-down; conditions: Bead pull-down: PBS (pH 7), room temperature, 1-2 h, western blot, protein in an extract
T2 sequence (looked up, limits assumed): T1 sequence (looked up, limits assumed)

[3] = biological target: T1, HMGB1; assay: SPR; conditions: HMGB1 immobilized on CM5 chip, DNA 0-10 uM; phosphorothioate throughout; 5' C6 amino linker; SPR: Biacore T200, CM5 chip with immobilized HMGB1, buffer not stated; recombinant protein; single-stranded …
[4] = tested on: HMGB1, redox-modified forms (H2O2 or DTT treated); assay: pull-down; conditions: three redox forms; phosphorothioate throughout; 5' C6 amino linker; Bead pull-down: PBS (pH 7), room temperature, 1-2 h, western blot; recombinant protein; single-stranded DNA
[5] = biological target: T3, HMGB1 from septic (CLP) mouse serum (Mus musculus) (UniProt P63158); assay: pull-down; conditions: serum; phosphorothioate throughout; 5' C6 amino linker; Bead pull-down: PBS (pH 7), room temperature, 1-2 h, western blot; protein in an extract; single-stranded DNA
T3 sequence (looked up, limits assumed): T1 sequence (looked up, limits assumed)

[6] = tested on: Histone H3 (Homo sapiens); assay: pull-down; conditions: 0-3 ug H3, 5 ul beads; phosphorothioate throughout; 5' C6 amino linker; Bead pull-down: PBS (pH 7), room temperature, 1-2 h, western blot; commercial protein; single-stranded DNA
[7] = biological target: HMGB1 from colitis mouse feces (Mus musculus) (UniProt P63158); assay: pull-down; conditions: fecal extract; phosphorothioate throughout; 5' C6 amino linker; Bead pull-down: PBS (pH 7), room temperature, 1-2 h, western blot; protein in an extract; single-stranded DNA
[8] = biological target: TNF (Homo sapiens) (UniProt P01375); assay: pull-down; conditions: phosphorothioate throughout, 5' C6 amino linker, Bead pull-down: PBS (pH 7), room temperature, 1-2 h, western blot, commercial protein, single-stranded DNA
[9] = DNA on sepharose beads, >90% of HMGB1 captured, phosphorothioate throughout, 5' C6 amino linker, single-stranded DNA
[10] = pH 1 or 2 (HCl), phosphorothioate throughout, 5' C6 amino linker, single-stranded DNA
[11] = 10x concentrated supernatant, phosphorothioate throughout, 5' C6 amino linker, single-stranded DNA

Sequence | binding result ([1]; DNA on sepharose beads, >90% of HMGB1 captured, phosphodiester, 5' C6 amino linker on strand 1, folded or branched DNA) | binding result ([1]; pH 1 or 2 (HCl), binding capacity not retained, phosphodiester, 5' C6 amino linker on strand 1, folded or branched DNA) | binding result ([2]; cell supernatant, phosphodiester, 5' C6 amino linker on strand 1, folded or branched …) | binding result ([1]; DNA on sepharose beads, phosphodiester, 5' C6 amino linker on strand 1) | Kd [3] | binding result [4] | binding result [5] | binding result [1, 9] | binding result ([1]; beads pre-exposed to DNase I 40 ng/ml, phosphorothioate throughout, 5' C6 amino linker, single-stranded DNA) | binding result [1, 10] | binding result [6] | binding result [7] | binding result [2, 11] | binding result ([8]; 200 ng TNF) | binding result [8]
CCCTATAACCCCTGCATTGAATTCCAGTCTGATAA / GTAGTCGTGATAGGTGCAGGGGTTATAGGG / AACAGTAGCTCTTATTCGAGCTCGCGCCCTATCACGACTA / TTTATCAGACTGGAATTCAAGCGCGAGCTCGAATAAGAGCTACTGT [S3 (12-4WJ.1; B3 beads)] | binds | no binding | no binding |  |  |  |  |  |  |  |  |  |  |  | 
CTTGCATTGAAATTTCTTTCC / GGAAAGAAACAATGCAAG [S4 (12-DP.1; B4 beads)] |  |  |  | no binding |  |  |  |  |  |  |  |  |  |  | 
TGGATGAGCTTCCTGATGTC [S2 (12-20.2; B2 beads)] |  |  |  |  | 5 nM | binds | binds | binds | binds | binds | no binding | binds | binds | no binding | 
AGCATGAGGTTCCTGATGCT [S1 (12-20.1; B1 beads)] |  |  |  |  | 5 nM | binds |  | binds |  | binds | no binding | binds | binds |  | no binding

— paper PMC4134190
